The values that follow come from publication PMC11431649.

In this assay the target is recombinant human CD4 protein (extracellular domain) (human) (UniProt P01730). Nature of the assay: SPR; Biacore T200; hCD4 immobilised on a CM7 chip (20–27 kRU) by amine coupling; unlabeled peptides in two-fold dilutions from 100 µM; 10 mM HEPES pH 7.5, 150 mM NaCl, 0.05% Tween 20, with or without 1% DMSO; 15 °C; a reference protein under the same conditions for specificity; both purified.

These are yes or no findings as the source states them, for the method shown.

With WHWPLTV [unlabeled synthetic peptide P18 (WHWPLTV)], the binding entry was “no binding (tested: 100 µM)”. With SWTVWRS [unlabeled synthetic peptide P16 (SWTVWRS)], the binding result is listed as “no binding (tested: 100 µM)”.
